For data set [1], the target named is T1, HA-Hand1-AA (T107A/S109A) (Mus musculus) (UniProt Q64279).
T1 sequence (looked up, limits assumed): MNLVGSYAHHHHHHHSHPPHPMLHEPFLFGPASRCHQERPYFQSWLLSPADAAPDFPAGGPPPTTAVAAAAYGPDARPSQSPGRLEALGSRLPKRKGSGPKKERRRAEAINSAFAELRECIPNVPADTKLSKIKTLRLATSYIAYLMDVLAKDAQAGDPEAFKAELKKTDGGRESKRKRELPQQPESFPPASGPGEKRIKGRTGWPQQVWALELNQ
Put plainly: EMSA. Particulars: nuclear extract; EMSA: Promega gel shift kit, buffer not given; protein in an extract; protein details: HA (N-term). Background: Mobility shift assays separate free from complexed probe on a gel.

Data set [2] concerns the target T2, HA-Hand1-DD (T107D/S109D) (Mus musculus) (UniProt Q64279).
T2 sequence (looked up, limits assumed): T1 sequence (looked up, limits assumed) with A107D, A109D
Put plainly: EMSA. The settings on record: nuclear extract; EMSA: Promega gel shift kit, buffer not given; protein in an extract; protein details: HA (N-term).

Substitutions are numbered along the chain they refer to. Construct, isoform or probe ends are uncertain for at least one entry. At least one result comes from cells or an extract, where the contact may be indirect. For some assays here: No signal at the amounts used counts as a negative. Tags and fusion partners may be left off the protein sequences shown.

For “ATTGGCGTCTGGCATTGCATTGGCGTCTGGCATTGCATTGGCGTCTGGCATT / GATCTAATGCCAGACGCCAATGCAATGCCAGACGCCAATGCAATGCCAGACGCCAATGAGCT [Th1 D-box probe (3x D-box)]”, the binding result in data set [1] is reported as “binds”; in data set [2], “no binding”.

The values are drawn from paper PMC3084786.
